Reference: paper PMC9382421
These are yes or no findings as the source states them, for the method shown. In cells and extracts the contact can be indirect. Some entries that bind do so weakly or less than the wild type. Blank lines part the entries; values can stand above or below the molecule they belong to.

Protein sequences, listed by entry. Tags and fused reporters are not part of them. Residues count along the entry.
UniProt Q3UVX5, residues 19-1203: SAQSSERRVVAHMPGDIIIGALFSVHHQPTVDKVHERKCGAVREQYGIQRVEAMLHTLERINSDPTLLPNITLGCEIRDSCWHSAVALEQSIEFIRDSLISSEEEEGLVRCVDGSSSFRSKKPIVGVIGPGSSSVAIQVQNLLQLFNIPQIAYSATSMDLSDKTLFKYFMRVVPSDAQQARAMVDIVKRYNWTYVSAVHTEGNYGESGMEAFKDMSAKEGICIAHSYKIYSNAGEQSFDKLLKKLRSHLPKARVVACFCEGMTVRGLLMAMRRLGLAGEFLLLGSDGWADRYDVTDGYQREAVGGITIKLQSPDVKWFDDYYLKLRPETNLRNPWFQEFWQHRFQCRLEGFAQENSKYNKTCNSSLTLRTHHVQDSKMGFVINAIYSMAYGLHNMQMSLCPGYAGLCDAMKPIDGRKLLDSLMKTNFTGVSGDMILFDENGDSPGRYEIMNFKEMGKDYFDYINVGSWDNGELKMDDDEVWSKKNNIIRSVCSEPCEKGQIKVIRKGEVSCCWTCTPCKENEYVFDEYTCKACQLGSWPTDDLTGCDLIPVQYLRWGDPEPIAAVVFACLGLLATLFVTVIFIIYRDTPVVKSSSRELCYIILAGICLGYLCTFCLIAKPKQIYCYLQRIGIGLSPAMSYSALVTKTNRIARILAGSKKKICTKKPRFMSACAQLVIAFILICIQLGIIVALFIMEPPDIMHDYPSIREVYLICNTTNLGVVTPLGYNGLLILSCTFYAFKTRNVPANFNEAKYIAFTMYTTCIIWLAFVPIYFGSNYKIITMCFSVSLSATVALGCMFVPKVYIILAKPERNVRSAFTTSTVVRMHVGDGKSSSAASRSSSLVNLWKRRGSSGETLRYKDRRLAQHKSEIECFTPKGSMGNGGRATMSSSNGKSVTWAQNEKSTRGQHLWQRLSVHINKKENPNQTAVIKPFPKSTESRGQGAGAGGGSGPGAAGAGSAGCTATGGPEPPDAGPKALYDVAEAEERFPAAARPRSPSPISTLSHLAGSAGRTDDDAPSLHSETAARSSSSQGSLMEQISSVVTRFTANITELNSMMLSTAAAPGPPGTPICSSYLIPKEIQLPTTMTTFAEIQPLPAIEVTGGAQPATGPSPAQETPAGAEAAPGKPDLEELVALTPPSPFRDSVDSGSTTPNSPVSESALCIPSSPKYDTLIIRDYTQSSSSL

Tests used:
[1] = target: T1, β3 integrin (mouse (endogenous in mouse cortex)) (UniProt O54890); test: co-IP; membrane fraction of adult mouse cortex solubilised in buffer B (100 mM NaCl, 20 mM HEPES, 0.2 mM CaCl2, 1 mM MgCl2, 1% Triton X-100); lysate incubated overnight with Protein G beads coupled with hamster anti-CD61 or rabbit anti-mGluR5; controls non-immune hamster IgG or rabbit anti-RFP; western blot
T1 sequence: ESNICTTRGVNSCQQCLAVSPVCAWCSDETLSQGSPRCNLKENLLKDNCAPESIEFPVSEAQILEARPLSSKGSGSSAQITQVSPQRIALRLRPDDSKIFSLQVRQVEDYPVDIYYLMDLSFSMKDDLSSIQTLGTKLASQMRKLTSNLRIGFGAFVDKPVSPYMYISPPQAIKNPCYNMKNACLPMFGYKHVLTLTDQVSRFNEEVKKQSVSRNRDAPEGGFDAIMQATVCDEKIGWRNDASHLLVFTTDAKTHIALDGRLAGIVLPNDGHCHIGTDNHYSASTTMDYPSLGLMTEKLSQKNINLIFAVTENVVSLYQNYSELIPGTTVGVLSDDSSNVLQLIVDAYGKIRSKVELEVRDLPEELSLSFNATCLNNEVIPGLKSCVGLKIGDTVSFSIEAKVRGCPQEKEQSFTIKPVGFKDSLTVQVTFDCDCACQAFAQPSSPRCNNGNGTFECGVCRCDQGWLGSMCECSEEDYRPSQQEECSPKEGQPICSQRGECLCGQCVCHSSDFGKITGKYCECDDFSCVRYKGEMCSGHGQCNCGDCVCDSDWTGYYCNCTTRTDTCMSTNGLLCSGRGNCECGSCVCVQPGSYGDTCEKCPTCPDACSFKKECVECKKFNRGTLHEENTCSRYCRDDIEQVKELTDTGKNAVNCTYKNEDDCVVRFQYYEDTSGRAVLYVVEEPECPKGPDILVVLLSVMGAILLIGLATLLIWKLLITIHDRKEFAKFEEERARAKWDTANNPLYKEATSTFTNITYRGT

[2] = target: metabotropic glutamate receptor mGluR5 (mouse (endogenous in mouse cortex)) (UniProt Q3UVX5); test: as above

binding [1]: binds
Molecule: metabotropic glutamate receptor mGluR5 (from UniProt Q3UVX5 19-1203)

binding [2]: binds
B1: β3 integrin (receptor, UniProt O54890 26-787)
chain: T1 sequence
